{"source": "patent US11826426B2", "about": "“Nanoscale metal-organic layers and metal-organic nanoplates for x-ray induced photodynamic therapy, radiotherapy, radiodynamic therapy, chemotherapy, immunotherapy, and any combination thereof” (priority 2017, dated 2023)", "origin": "cited, not measured here", "settings": "cited from earlier work", "note": "For at least one compound, name, drawing or mass did not settle the structure.", "data": [{"smiles": "[Ru+2].c1ccc(-c2ccccn2)nc1.c1ccc(-c2ccccn2)nc1.c1ccc(-c2ccccn2)nc1", "note": "[[Ru(bpy)3]^2+]", "values": [{"measurement": "^1O2 generation quantum yield (ΦA)", "value": 0.73}]}]}
